According to paper PMC5645493, “LAR-RPTP Clustering Is Modulated by Competitive Binding between Synaptic Adhesion Partners and Heparan Sulfate” (Frontiers in Molecular Neuroscience, 2017):
These are yes or no findings as the source states them, for the method shown. Some entries that bind do so weakly or less than the wild type.

How the values were obtained:
[1] = biological target: T1, pDis-PTPδ WT(+/+) (human) (UniProt P23468); test: cell adhesion (cell aggregation) assay; as the cell adhesion assay, pre-formed aggregates of L cells treated with 0.5 mg/ml heparan sulfate for a further 2 h
T1 sequence: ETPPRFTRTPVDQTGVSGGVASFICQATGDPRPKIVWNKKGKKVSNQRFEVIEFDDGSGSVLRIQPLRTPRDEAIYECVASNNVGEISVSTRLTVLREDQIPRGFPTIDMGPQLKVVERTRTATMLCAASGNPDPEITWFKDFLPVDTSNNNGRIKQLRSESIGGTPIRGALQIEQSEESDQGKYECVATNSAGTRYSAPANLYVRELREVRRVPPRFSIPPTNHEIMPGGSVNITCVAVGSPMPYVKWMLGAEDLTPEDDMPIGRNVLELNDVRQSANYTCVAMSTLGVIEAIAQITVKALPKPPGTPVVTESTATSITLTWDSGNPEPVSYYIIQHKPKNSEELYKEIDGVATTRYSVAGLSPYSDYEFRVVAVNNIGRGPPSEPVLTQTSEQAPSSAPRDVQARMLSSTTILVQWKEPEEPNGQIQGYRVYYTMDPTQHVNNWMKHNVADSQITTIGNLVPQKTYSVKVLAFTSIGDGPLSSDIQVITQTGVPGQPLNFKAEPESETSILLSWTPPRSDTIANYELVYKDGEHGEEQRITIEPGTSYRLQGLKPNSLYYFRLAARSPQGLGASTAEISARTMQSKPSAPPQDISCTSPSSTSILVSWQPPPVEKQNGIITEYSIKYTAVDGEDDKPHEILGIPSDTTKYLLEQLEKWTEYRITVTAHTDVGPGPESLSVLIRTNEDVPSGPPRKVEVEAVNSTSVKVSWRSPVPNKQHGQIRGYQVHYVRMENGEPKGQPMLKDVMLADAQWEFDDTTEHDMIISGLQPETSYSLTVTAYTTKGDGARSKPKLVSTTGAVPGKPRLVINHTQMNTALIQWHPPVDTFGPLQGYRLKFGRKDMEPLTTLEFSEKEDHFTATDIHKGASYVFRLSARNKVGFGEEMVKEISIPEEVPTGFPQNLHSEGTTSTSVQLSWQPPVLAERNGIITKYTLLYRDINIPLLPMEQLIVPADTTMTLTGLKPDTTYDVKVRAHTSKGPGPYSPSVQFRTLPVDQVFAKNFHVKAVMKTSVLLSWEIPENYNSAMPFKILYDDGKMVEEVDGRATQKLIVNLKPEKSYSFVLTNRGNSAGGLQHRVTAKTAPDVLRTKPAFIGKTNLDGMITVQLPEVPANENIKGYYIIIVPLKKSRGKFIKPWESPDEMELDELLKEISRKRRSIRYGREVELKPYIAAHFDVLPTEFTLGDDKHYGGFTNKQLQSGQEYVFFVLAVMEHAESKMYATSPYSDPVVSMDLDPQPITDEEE

pDis-PTPδΔK(+/+) (human) [2] = biological target: T2, pDis-PTPδΔK(+/+) (human) (UniProt P23468); test: as above
T2 sequence: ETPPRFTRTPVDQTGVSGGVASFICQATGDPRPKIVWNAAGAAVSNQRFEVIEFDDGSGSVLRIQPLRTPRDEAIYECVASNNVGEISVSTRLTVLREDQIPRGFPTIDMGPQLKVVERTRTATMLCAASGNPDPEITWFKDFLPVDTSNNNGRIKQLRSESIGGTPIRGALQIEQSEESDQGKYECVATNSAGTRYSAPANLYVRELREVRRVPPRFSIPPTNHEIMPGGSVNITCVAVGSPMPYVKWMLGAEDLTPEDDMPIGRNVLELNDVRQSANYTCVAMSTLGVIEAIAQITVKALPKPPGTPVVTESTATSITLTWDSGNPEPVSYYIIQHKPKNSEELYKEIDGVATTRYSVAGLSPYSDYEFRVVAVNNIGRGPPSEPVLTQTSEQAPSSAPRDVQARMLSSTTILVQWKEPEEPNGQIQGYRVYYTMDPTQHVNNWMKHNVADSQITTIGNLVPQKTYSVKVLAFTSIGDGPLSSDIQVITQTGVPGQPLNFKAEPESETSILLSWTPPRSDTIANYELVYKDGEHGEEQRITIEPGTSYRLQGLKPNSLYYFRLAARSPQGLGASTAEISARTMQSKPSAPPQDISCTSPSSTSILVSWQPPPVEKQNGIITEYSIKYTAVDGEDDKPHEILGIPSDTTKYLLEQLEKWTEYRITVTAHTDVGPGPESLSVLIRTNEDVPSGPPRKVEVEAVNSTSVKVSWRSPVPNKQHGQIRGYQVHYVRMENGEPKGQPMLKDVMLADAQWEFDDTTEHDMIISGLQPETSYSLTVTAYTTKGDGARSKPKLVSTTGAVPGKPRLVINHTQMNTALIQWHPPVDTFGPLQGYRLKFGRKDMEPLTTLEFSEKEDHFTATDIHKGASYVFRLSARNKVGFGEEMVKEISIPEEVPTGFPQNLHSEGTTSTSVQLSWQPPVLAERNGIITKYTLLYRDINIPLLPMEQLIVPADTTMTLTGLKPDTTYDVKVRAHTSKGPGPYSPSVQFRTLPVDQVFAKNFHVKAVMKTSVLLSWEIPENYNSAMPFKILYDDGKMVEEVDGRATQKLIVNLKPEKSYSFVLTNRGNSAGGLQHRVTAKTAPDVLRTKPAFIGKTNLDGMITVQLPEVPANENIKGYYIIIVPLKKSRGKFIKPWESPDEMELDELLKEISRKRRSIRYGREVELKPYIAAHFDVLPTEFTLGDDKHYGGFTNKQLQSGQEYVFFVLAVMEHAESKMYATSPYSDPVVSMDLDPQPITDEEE

[3] = biological target: T1, pDis-PTPδ WT(+/+) (human); test: cell adhesion (cell aggregation) assay; L cells expressing EGFP and the postsynaptic partner (pDisplay) mixed with L cells expressing DsRed and the LAR-RPTP (pDisplay), rotated at room temperature for 2 h, aggregates imaged by confocal microscopy; without glycan or with 0.5 mg/ml chondroitin sulfate for a further 2 h
pDis-PTPδΔK(+/+) (human) [4] = biological target: T2, pDis-PTPδΔK(+/+) (human); test: as above
[5] = biological target: T3, human PTPδ Ig1-3(+/+) (human) (UniProt P23468); test: condition: only with a 2-fold molar excess of heparan sulfate; SEC; with heparan sulfate: pre-formed complex incubated with a 2-fold molar excess of HS at 4°C for 3 h, or LAR-RPTP Ig1-3 pre-incubated with a 2-fold molar excess of HS and then with the partner; Superdex 200 10/300 GL, 10 mM Tris-HCl pH 8.0, 50 mM NaCl; both purified
T3 sequence: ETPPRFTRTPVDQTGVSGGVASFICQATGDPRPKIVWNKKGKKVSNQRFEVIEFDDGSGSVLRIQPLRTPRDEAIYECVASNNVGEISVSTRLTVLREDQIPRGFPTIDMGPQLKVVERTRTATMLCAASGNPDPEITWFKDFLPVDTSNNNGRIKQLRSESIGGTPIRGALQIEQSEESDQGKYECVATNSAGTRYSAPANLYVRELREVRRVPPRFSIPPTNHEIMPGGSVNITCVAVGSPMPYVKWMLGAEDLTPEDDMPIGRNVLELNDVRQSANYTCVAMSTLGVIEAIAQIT

Row | Binder | binding [1] | binding (pDis-PTPδΔK(+/+) (human) [2]) | binding [3] | binding (pDis-PTPδΔK(+/+) (human) [4]) | binding [5]
1 | pDis-IL1RAPL1 WT (receptor, UniProt Q9NZN1 27-349) SADGCTDWSIDIKKYQVLVGEPVRIKCALFYGYIRTNYSLAQSAGLSLMWYKSSGPGDFEEPIAFDGSRMSKEEDSIWFRPTLLQDSGLYACVIRNSTYCMKVSISLTVGENDTGLCYNSKMKYFEKAELSKSKEISCRDIEDFLLPTREPEILWYKECRTKTWRPSIVFKRDTLLIREVREDDIGNYTCELKYGGFVVRRTTELTVTAPLTDKPPKLLYPMESKLTIQETQLGDSANLTCRAFFGYSGDVSPLIYWMKGEKFIEDLDENRVWESDIRILKEHLGEQEVSISLIVDSVEEGDLGNYSCYVENGNGRRHASVLL | no binding (condition: with 0.5 mg/ml heparan sulfate) | binds | binds | binds | –
2 | human IL1RAPL1 Ig1-3 (domain or fragment, glycans (NAG2-BMA-MAN) attached to N138, IL-1 receptor accessory protein-like 1 (IL1RAPL1), human, Ig-like domains 1-3 of the extracellular part; In the functional row the Fc-fused form (Fc not cleaved) was used; also called IL-1 receptor accessory protein-like 1; IL1RAPL1 Ig1-3-Fc / IL1RAPL1-Fc (Fc kept, in the clustering assays only); source: High Five insect cells (baculovirus), secreted, purified (IgG Sepharose or protein A …)) SADGCTDWSIDIKKYQVLVGEPVRIKCALFYGYIRTNYSLAQSAGLSLMWYKSSGPGDFEEPIAFDGSRMSKEEDSIWFRPTLLQDSGLYACVIRNSTYCMKVSISLTVGENDTGLCYNSKMKYFEKAELSKSKEISCRDIEDFLLPTREPEILWYKECRTKTWRPSIVFKRDTLLIREVREDDIGNYTCELKYGGFVVRRTTELTVTAPLTDKPPKLLYPMESKLTIQETQLGDSANLTCRAFFGYSGDVSPLIYWMKGEKFIEDLDENRVWESDIRILKEHLGEQEVSISLIVDSVEEGDLGNYSCYVENGNGRRHASVLL | – | – | – | – | no binding
3 | pDis-IL1RAPL1 mutant (E87A/E137R/N138A/R342D/H344D) (receptor, UniProt Q9NZN1 27-349) SADGCTDWSIDIKKYQVLVGEPVRIKCALFYGYIRTNYSLAQSAGLSLMWYKSSGPGDFEAPIAFDGSRMSKEEDSIWFRPTLLQDSGLYACVIRNSTYCMKVSISLTVGRADTGLCYNSKMKYFEKAELSKSKEISCRDIEDFLLPTREPEILWYKECRTKTWRPSIVFKRDTLLIREVREDDIGNYTCELKYGGFVVRRTTELTVTAPLTDKPPKLLYPMESKLTIQETQLGDSANLTCRAFFGYSGDVSPLIYWMKGEKFIEDLDENRVWESDIRILKEHLGEQEVSISLIVDSVEEGDLGNYSCYVENGNGDRDASVLL | – | – | binds | – | –
